Results from paper PMC8591358.
Results are given in words; binding and its absence hold for the method and conditions named. In cells and extracts the contact can be indirect. Binding can be weak; no strength is given.

Target: GST-MUC1-CD (aa1–72) (human)
Experiment: pull-down; GST-MUC1-CD (aa1-72) immobilized on glutathione-agarose beads, incubated with A549 cell lysates; c-Src, EGFR or γ-catenin immunoblot; only the target purified

binding: binds
B1: γ-catenin, endogenous in A549 cells (protein, UniProt P14923 1-745)
chain: MEVMNLMEQPIKVTEWQQTYTYDSGIHSGANTCVPSVSSKGIMEEDEACGRQYTLKKTTTYTQGVPPSQGDLEYQMSTTARAKRVREAMCPGVSGEDSSLLLATQVEGQATNLQRLAEPSQLLKSAIVHLINYQDDAELATRALPELTKLLNDEDPVVVTKAAMIVNQLSKKEASRRALMGSPQLVAAVVRTMQNTSDLDTARCTTSILHNLSHHREGLLAIFKSGGIPALVRMLSSPVESVLFYAITTLHNLLLYQEGAKMAVRLADGLQKMVPLLNKNNPKFLAITTDCLQLLAYGNQESKLIILANGGPQALVQIMRNYSYEKLLWTTSRVLKVLSVCPSNKPAIVEAGGMQALGKHLTSNSPRLVQNCLWTLRNLSDVATKQEGLESVLKILVNQLSVDDVNVLTCATGTLSNLTCNNSKNKTLVTQNSGVEALIHAILRAGDKDDITEPAVCALRHLTSRHPEAEMAQNSVRLNYGIPAIVKLLNQPNQWPLVKATIGLIRNLALCPANHAPLQEAAVIPRLVQLLVKAHQDAQRHVAAGTQQPYTDGVRMEEIVEGCTGALHILARDPMNRMEIFRLNTIPLFVQLLYSSVENIQRVAAGVLCELAQDKEAADAIDAEGASAPLMELLHSRNEGTATYAAAVLFRISEDKNPDYRKRVSVELTNSLFKHDPAAWEAAQSMIPINEPYGDDMDATYRPMYSSDVPLDPLEMHMDMDGDYPIDTYSDGLRPPYPTADHMLA
